Measurements as given in paper PMC7897678.
Results are given in words; binding and its absence hold for the method and conditions named. Some binding calls cover weakened binding; strength is not graded here.

Protein sequences, listed by entry. Tags and fused reporters are not part of them. Residues count along the entry.
UniProt P08603, residues 19-1231: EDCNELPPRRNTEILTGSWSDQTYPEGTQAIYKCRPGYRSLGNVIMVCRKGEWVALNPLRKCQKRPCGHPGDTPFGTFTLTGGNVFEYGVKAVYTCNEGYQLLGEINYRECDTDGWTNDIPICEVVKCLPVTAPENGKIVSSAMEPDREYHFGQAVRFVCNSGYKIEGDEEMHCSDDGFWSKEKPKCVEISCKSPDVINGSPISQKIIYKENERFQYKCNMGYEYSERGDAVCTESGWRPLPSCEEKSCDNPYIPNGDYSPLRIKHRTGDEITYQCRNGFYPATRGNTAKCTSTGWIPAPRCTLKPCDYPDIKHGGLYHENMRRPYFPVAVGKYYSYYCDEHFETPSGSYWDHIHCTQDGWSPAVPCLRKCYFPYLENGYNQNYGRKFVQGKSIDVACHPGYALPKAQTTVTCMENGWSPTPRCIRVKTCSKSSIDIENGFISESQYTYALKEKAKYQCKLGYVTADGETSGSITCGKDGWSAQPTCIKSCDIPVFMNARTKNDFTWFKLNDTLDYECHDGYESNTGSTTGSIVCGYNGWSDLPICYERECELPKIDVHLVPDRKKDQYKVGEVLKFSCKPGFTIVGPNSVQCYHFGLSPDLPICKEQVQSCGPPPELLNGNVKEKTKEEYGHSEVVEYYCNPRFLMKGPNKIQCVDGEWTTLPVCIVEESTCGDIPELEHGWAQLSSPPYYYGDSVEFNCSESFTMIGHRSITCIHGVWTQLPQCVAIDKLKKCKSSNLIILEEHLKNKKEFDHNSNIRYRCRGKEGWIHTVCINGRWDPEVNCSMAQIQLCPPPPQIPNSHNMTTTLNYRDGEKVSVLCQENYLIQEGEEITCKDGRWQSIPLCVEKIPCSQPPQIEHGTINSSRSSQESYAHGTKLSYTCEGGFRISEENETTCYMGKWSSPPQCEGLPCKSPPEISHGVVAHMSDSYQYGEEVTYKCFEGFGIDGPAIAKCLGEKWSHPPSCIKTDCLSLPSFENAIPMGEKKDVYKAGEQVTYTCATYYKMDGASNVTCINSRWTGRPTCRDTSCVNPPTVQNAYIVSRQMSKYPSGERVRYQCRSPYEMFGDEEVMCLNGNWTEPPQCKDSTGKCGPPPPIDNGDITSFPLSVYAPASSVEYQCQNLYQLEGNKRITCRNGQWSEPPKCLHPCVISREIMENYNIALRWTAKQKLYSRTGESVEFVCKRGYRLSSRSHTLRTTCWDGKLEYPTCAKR
UniProt P26022, residues 18-381: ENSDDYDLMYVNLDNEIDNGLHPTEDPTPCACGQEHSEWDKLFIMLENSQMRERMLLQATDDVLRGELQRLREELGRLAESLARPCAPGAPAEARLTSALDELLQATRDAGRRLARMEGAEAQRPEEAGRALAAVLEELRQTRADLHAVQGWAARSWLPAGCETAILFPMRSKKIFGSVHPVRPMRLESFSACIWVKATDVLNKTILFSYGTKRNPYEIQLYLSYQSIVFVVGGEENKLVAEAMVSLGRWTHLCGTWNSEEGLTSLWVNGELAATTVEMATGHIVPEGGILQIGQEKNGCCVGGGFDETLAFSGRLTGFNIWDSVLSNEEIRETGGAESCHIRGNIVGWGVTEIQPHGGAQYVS

Biological target: Factor H (UniProt P08603)
Assay: ELISA; FH coated (10 µg/ml); NP1 and NP2 2.5–20 µg/ml, PTX3 1.2–10 µg/ml in solution; bound pentraxins detected with anti-His-tag antibody; both purified

Substance: His-tagged human pentraxin 3 (from UniProt P26022 18-381)
- binding: binds
